PubChem BioAssay AID1259297, Sanger Institute – 2017
Shown is a random part of 794 deposited reagents. Of all reagents, 13 (1.6%) got an active call. 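Calls reflect knock-down without drug only; drug synergy is judged separately, with scores above 0.15 counted as synergy.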 Viability is capped at 1. No sequences are given here. Not stated in the record: the amount of reagent, the time to read-out.

Aim: 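Kinases whose loss kills cells on their own or with targeted drugs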 (primary screen)
Cells: human RCM1 colorectal cancer cell line
Knock-down reagent: siRNA pool against human genes
Challenge: separate arms: DMSO vehicle, or one anchor drug at a mild dose: BYL719 1 µM, cetuximab 5 µg/ml, trametinib 10 nM
Read-out: 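Viability per well relative to a non-targeting pool, mean of replicates; robust z-score for knock-down alone; synergy score with BYL719, cetuximab or trametinib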
Reading the numbers: viability z-score, knock-down alone: higher = more viable cells than non-targeting controls; viability, knock-down alone (DMSO): higher = more viable cells; synergy score with trametinib: higher = stronger combined killing with trametinib; synergy score with BYL719: higher = stronger combined killing with BYL719; synergy score with cetuximab: higher = stronger combined killing with cetuximab
Rule for the call: 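Essential when the viability robust z-score for knock-down alone is below -3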
Calls: active = essential when knocked down alone; inactive = no clear loss of viability alone

| gene knocked down | viability z-score, knock-down alone | viability, knock-down alone (DMSO) (fraction of control) | synergy score with trametinib | synergy score with BYL719 | synergy score with cetuximab | Outcome |
| --- | --- | --- | --- | --- | --- | --- |
| PIP5KL1 (GeneID 138429) | 0.503 | 0.963 | -0.00102 | 0.081 | 0.00813 | inactive |
| OXSR1 (GeneID 9943) | 0.623 | 0.974 | 0.116 | -0.0285 | 0.0594 | inactive |
| PGK1 (GeneID 5230) | 0.317 | 0.946 | 0.036 | -0.123 | -0.16 | inactive |
| ROCK1 (GeneID 6093) | 0.561 | 0.968 | 0.0445 | -0.0577 | -0.146 | inactive |
| PIK3C2B (GeneID 5287) | 0.343 | 0.948 | 0.0341 | -0.0952 | -0.117 | inactive |
| MERTK (GeneID 10461) | -0.0826 | 0.909 | 0.0988 | 0.0125 | 0.102 | inactive |
| LIMK2 (GeneID 3985) | 0.215 | 0.936 | 0.00237 | -0.132 | -0.174 | inactive |
| RYK (GeneID 6259) | 0.9 | 1 | -0.032 | -0.0728 | -0.118 | inactive |
| TSSK3 (GeneID 81629) | 0.487 | 0.962 | -0.0519 | -0.03 | -0.1 | inactive |
| MOS (GeneID 4342) | -1.09 | 0.815 | 0.082 | 0.0361 | -0.0816 | inactive |
| TNIK (GeneID 23043) | -0.295 | 0.889 | -0.0614 | 0.0396 | 0.0479 | inactive |
| INSR (GeneID 3643) | 0.9 | 1 | 0.00902 | -0.0414 | -0.111 | inactive |
| RFK (GeneID 55312) | -0.0111 | 0.915 | -0.0425 | -0.0681 | -0.193 | inactive |
| TAOK2 (GeneID 9344) | 0.9 | 1 | 0.108 | -0.0516 | -0.118 | inactive |
| DAPK1 (GeneID 1612) | -1.71 | 0.757 | -0.0131 | -0.099 | -0.204 | inactive |
| CSNK1E (GeneID 1454) | -0.261 | 0.892 | -0.0393 | 0.0797 | 0.05 | inactive |
| CSNK1G3 (GeneID 1456) | 0.9 | 1 | 0.0282 | -0.0728 | -0.118 | inactive |
| TRIB3 (GeneID 57761) | -0.401 | 0.879 | -0.0568 | 0.00621 | -0.0783 | inactive |
| MAP4K1 (GeneID 11184) | 0.393 | 0.953 | -0.00828 | -0.035 | -0.109 | inactive |
| PKN1 (GeneID 5585) | 0.9 | 1 | -0.129 | -0.0728 | -0.118 | inactive |

4 entries from above, reformatted:
gene knocked down,"viability z-score, knock-down alone","viability, knock-down alone (DMSO) (fraction of control)",synergy score with trametinib,synergy score with BYL719,synergy score with cetuximab,Outcome
INSR (GeneID 3643),0.9,1,0.00902,-0.0414,-0.111,inactive
RFK (GeneID 55312),-0.0111,0.915,-0.0425,-0.0681,-0.193,inactive
TAOK2 (GeneID 9344),0.9,1,0.108,-0.0516,-0.118,inactive
DAPK1 (GeneID 1612),-1.71,0.757,-0.0131,-0.099,-0.204,inactive

Next entries follow:
| gene knocked down | viability z-score, knock-down alone | viability, knock-down alone (DMSO) (fraction of control) | synergy score with trametinib | synergy score with BYL719 | synergy score with cetuximab | Outcome |
| --- | --- | --- | --- | --- | --- | --- |
| ROS1 (GeneID 6098) | 0.899 | 1 | 0.151 | 0.11 | -0.118 | inactive |
| KSR1 (GeneID 8844) | -2.33 | 0.7 | -0.0138 | -0.0568 | 0.00571 | inactive |
| MAGI2 (GeneID 9863) | 0.748 | 0.986 | -0.0174 | 0.0269 | -0.0811 | inactive |
| EIF2AK1 (GeneID 27102) | 0.719 | 0.983 | 0.0208 | 0.116 | 0.0999 | inactive |
| ADCK1 (GeneID 57143) | 0.3 | 0.944 | 0.0145 | 0.0388 | -0.167 | inactive |
| MAPK10 (GeneID 5602) | -0.267 | 0.892 | 0.0644 | -0.165 | -0.212 | inactive |
| STK33 (GeneID 65975) | -1.23 | 0.803 | 0.126 | -0.0601 | -0.0825 | inactive |
| FBXW7 (GeneID 55294) | 0.9 | 1 | 0.0966 | -0.0728 | -0.118 | inactive |
| N4BP2 (GeneID 55728) | 0.385 | 0.952 | -0.0407 | -0.117 | -0.16 | inactive |
| CSNK1A1 (GeneID 1452) | 0.704 | 0.982 | -0.229 | -0.0897 | -0.134 | inactive |
| NRK (GeneID 203447) | -0.106 | 0.907 | 0.129 | -0.0062 | 0.0313 | inactive |
| GCK (GeneID 2645) | -3.24 | 0.616 | 0.0231 | 0.00436 | 0.0165 | active |
| PEAK1 (GeneID 79834) | -0.166 | 0.901 | 0.0443 | 0.0768 | -0.0754 | inactive |
| PTPN11 (GeneID 5781) | 0.099 | 0.926 | -0.000457 | -0.0627 | -0.14 | inactive |
| TESK1 (GeneID 7016) | 0.9 | 1 | 0.106 | -0.0728 | -0.0989 | inactive |
| TAF1 (GeneID 6872) | 0.889 | 0.999 | -0.0432 | -0.046 | -0.0734 | inactive |
| MAP3K3 (GeneID 4215) | 0.0774 | 0.924 | 0.0773 | 0.0176 | -0.0908 | inactive |
| POMK (GeneID 84197) | 0.9 | 1 | -0.0826 | -0.0535 | -0.0821 | inactive |
| BRD2 (GeneID 6046) | 0.9 | 1 | -0.0627 | -0.0728 | -0.0147 | inactive |
| SLK (GeneID 9748) | 0.9 | 1 | -0.0877 | -0.0728 | -0.106 | inactive |
| BUB1 (GeneID 699) | -0.139 | 0.904 | 0.0224 | -0.0501 | -0.144 | inactive |
| MAST1 (GeneID 22983) | 0.9 | 1 | -0.00346 | 0.00889 | -0.0804 | inactive |
| BCR (GeneID 613) | -0.913 | 0.832 | 0.0396 | -0.113 | -0.1 | inactive |
| NME2 (GeneID 4831) | 0.9 | 1 | 0.00473 | -0.0728 | -0.118 | inactive |
| SHPK (GeneID 23729) | 0.0834 | 0.924 | 0.0944 | 0.00302 | -0.0769 | inactive |
| MVK (GeneID 4598) | -0.0923 | 0.908 | -0.0387 | -0.0532 | -0.09 | inactive |
| MYLK4 (GeneID 340156) | 0.0662 | 0.923 | 0.0128 | -0.0657 | -0.185 | inactive |
| EGFR (GeneID 1956) | 0.152 | 0.931 | 0.0319 | -0.0823 | -0.112 | inactive |
| FRK (GeneID 2444) | 0.303 | 0.945 | -0.0903 | -0.0838 | -0.167 | inactive |
| KSR2 (GeneID 283455) | 0.9 | 1 | -0.0147 | -0.0728 | 0.031 | inactive |
